The other results are listed elsewhere or left out.
Biological target: OsWRKY34 (Oryza sativa, UniProt Q0JBA9 1-250)
Experiment: protein-binding microarray (RPBM); PBS, 2% BSA, 51.3 ng/ul salmon testes DNA, 50 uM zinc acetate, 200 nM TF, 25 C, 1 h; high values mean tight binding
Conditions: protein: recombinant; tags: N-terminal polyhistidine and DsRed monomer fusion (pET32a); label: CyDye5-dUTP incorporated in the synthesized complementary strand; 3' TTTTT single-stranded linker to array surface; dsDNA, one strand shown
How it was run: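 Binding signal is reported as fluorescence intensity per feature (arbitrary units) from an Axon 4000B scanner. Incubation used 200 nM of each Ni–NTA-purified, N-terminally polyhistidine- and DsRed-fused transcription factor from E. coli BL21-CodonPlus on a double-stranded custom Agilent array for 1 h at 25 °C, with 50 µM zinc acetate in the buffer, followed by washing.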

Sequences of proteins named here, by UniProt entry; tags and fusion partners are left off.
UniProt Q0JBA9, entry or part of it: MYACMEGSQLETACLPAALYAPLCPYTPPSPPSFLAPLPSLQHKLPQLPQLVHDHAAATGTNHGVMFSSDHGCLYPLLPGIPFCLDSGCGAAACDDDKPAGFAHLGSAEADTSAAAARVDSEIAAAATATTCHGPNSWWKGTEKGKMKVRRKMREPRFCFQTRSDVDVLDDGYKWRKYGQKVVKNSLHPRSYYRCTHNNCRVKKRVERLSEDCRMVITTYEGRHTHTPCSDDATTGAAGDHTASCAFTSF

Sequence | binding signal
GGTTTTGCATCTTCTTCGGCCCAACTCGTTCCTCCTCGACCGGAGTCACCTAGTGCAG | 11500 fluorescence intensity (a.u.)
TCTCCCCGCATCGTCTCGCCACTGAAGCTGCCATGGCAGACGGAGTCACCTAGTGCAG | 8240 fluorescence intensity (a.u.)
TCACACGGATGAAGATAGTTTGACCAAAACATCATCATCTCGGAGTCACCTAGTGCAG | 8030 fluorescence intensity (a.u.)
TCTTGAGCTGCCTGTCCCGGAATCCGATTCCGAGCTCACTCGGAGTCACCTAGTGCAG | 9810 fluorescence intensity (a.u.)
AACCTAGGTCATGAACACCGTGTTGACTGTTCATCCGAAACGGAGTCACCTAGTGCAG | 10900 fluorescence intensity (a.u.)
ATCCTGCGATTCCACCATATCCAATCCTCGTATCTTGGGTCGGAGTCACCTAGTGCAG | 8310 fluorescence intensity (a.u.)
AGGTGCGATGCGGAGGAAATGTGGGGTGGTAAAAAAGAAACGGAGTCACCTAGTGCAG | 9420 fluorescence intensity (a.u.)
TCTATCCCTCTCTTACTCTCTCTCGTGTTCCTCTTCACTACGGAGTCACCTAGTGCAG | 8780 fluorescence intensity (a.u.)
TGCATGTGGTTGGTCTATGTTTCTTTGAGCCGTGTTAGGACGGAGTCACCTAGTGCAG | 9570 fluorescence intensity (a.u.)
TATTTACTTTATTTCCTCCATTTATGTCGTTTTAGTTTTGCGGAGTCACCTAGTGCAG | 9590 fluorescence intensity (a.u.)
GGCGAGACGGGGAGAGGAGGGGAGGGTGACGGCGGCCGGACGGAGTCACCTAGTGCAG | 8690 fluorescence intensity (a.u.)
TCTTCACGCTGAAACGCGCCGTATCGGTCAACACTTCAGTCGGAGTCACCTAGTGCAG | 9040 fluorescence intensity (a.u.)
CATACTCCTAACAGTTATTAGTATTACGCTATATTTAACACGGAGTCACCTAGTGCAG | 8280 fluorescence intensity (a.u.)
TTCGTCGGGCTTCTCGCCATTGGCGTACGTACTCTTGCTGCGGAGTCACCTAGTGCAG | 9900 fluorescence intensity (a.u.)
CAGCTATACCTCTATATTTCCTGTGTTTTCTATTTTTCTCCGGAGTCACCTAGTGCAG | 11500 fluorescence intensity (a.u.)
TTTCCCTGATCCTTTTCCTAACCCAGTGGCAGGCATCTTTCGGAGTCACCTAGTGCAG | 9990 fluorescence intensity (a.u.)
CAACTACTTATCACACATTTACACGCATACACTTGGCCACCGGAGTCACCTAGTGCAG | 9110 fluorescence intensity (a.u.)
AGTTGTGCTGTGTAGAATTACTGGATGATTTGTTTTGGTTCGGAGTCACCTAGTGCAG | 8800 fluorescence intensity (a.u.)
TCATGGGCGAATCACGAGTATCAACATTATGTTTCTATATCGGAGTCACCTAGTGCAG | 8780 fluorescence intensity (a.u.)
TTGTTTCTGAAATACTTTTTGTTCTTTCGTCGTGGATTGTCGGAGTCACCTAGTGCAG | 10100 fluorescence intensity (a.u.)
AAGACATGGTTTCCTTTTTTTTCCTCATTTATTCACTTGCCGGAGTCACCTAGTGCAG | 9630 fluorescence intensity (a.u.)

Sequence | binding signal
GGAGCCATATAGGTACCATGCTAGCAAAAACCAGGGACAACGGAGTCACCTAGTGCAG | 8080 fluorescence intensity (a.u.)
ATGTAAATAGATGTAAGTTGCTTGTTTTTCCTTTTCTTTACGGAGTCACCTAGTGCAG | 10600 fluorescence intensity (a.u.)
CGTTTTTGCTCGGGTGGGCTGGGTTAGGGACTCATCTGCACGGAGTCACCTAGTGCAG | 23800 fluorescence intensity (a.u.)
ATGCATTGTTGCCATCCTCTTGCTTTACTTGCTCACAGTTCGGAGTCACCTAGTGCAG | 10200 fluorescence intensity (a.u.)
ACTTTTGCCATTTTCCATTTACCATTCCAAATGGATCTAACGGAGTCACCTAGTGCAG | 8540 fluorescence intensity (a.u.)
ATTCTCTTTTTCCGTGTTCAGCTGAATCGTCTCTGCTTTTCGGAGTCACCTAGTGCAG | 9240 fluorescence intensity (a.u.)
GTTTCTCTTCGTCGACGTCTCCTGCAAGATCGTTTGGACCCGGAGTCACCTAGTGCAG | 8960 fluorescence intensity (a.u.)
AATGTTTGTTTGGAATTCGGATGGTGTGCATGGTTTGCTTCGGAGTCACCTAGTGCAG | 8830 fluorescence intensity (a.u.)
CACCAAAAACCTTTTTATACTGGATCAGATGTTTTTTCTTCGGAGTCACCTAGTGCAG | 9610 fluorescence intensity (a.u.)
CTACCAAACCCACGCCGGCGCCGCATCGTCTTCGTCTCGTCGGAGTCACCTAGTGCAG | 9740 fluorescence intensity (a.u.)
CGCCCACCGCCCGCGCCACCGCTCGCCACCTGGTCCGCCGCGGAGTCACCTAGTGCAG | 8320 fluorescence intensity (a.u.)
CATTAGAAGTTAAAAAAAATTTCATGTGGCCTCCTTACACCGGAGTCACCTAGTGCAG | 12500 fluorescence intensity (a.u.)
CGGGGAGGGAGTCGGGCTGGAGGAGGACGCGGGTGTGGACCGGAGTCACCTAGTGCAG | 8730 fluorescence intensity (a.u.)
CATGGTTCATGTTTTTGGCGTGTTTGTGTTATGGTAGTGCCGGAGTCACCTAGTGCAG | 8910 fluorescence intensity (a.u.)
CGTCTACCAGTTGATATGCCAATTTTTGTTGAGAAGTAATCGGAGTCACCTAGTGCAG | 9200 fluorescence intensity (a.u.)
GGTGGGTGGCGCGGTGACCGGAGCCGGGGTGGCGGGTGTCCGGAGTCACCTAGTGCAG | 10500 fluorescence intensity (a.u.)
CCGCCGCTTCCTCGCCACCGCCGCTGCCGCCGCCACTTCCCGGAGTCACCTAGTGCAG | 19400 fluorescence intensity (a.u.)
TAAAAATTTCATGACTGTTTCCATCTGTTTTTGTAAAAGTCGGAGTCACCTAGTGCAG | 8530 fluorescence intensity (a.u.)
CCGCACGCATCGCCCACCCTTCGCCGCTCGGGCTCATCAGCGGAGTCACCTAGTGCAG | 8220 fluorescence intensity (a.u.)
CATCCACCGTTGCTCGATTTCTCTCCTCTCCCGCGCCGCCCGGAGTCACCTAGTGCAG | 10200 fluorescence intensity (a.u.)
TAGATGCTTCTTTCCCTTGTCATTATGTTTTCTTCCCTGACGGAGTCACCTAGTGCAG | 8020 fluorescence intensity (a.u.)

Sequence | binding signal
TCTCCTCTCTCTCTCTCTCTCATTTCTCTCTCGTTTTCTTCGGAGTCACCTAGTGCAG | 11400 fluorescence intensity (a.u.)
TCACATCTCTTGTTTTCCACGCGCACGTTTTTTAAATTGCCGGAGTCACCTAGTGCAG | 9140 fluorescence intensity (a.u.)
GTATCCTAATTTTCATAGTATCTCGATCCTACTATTCATTCGGAGTCACCTAGTGCAG | 11300 fluorescence intensity (a.u.)
GGGTTGAGATGGGAGTAGAGGGGAGTGAGGTGGAAGAAGACGGAGTCACCTAGTGCAG | 8360 fluorescence intensity (a.u.)
TGTGGCTGTGCGTGTCTGATTCGTGTTCGCTTCTCCGACTCGGAGTCACCTAGTGCAG | 9050 fluorescence intensity (a.u.)
ACTTTTTCATTTTTCGTTTTCAAACCGTTTAACAGTGTATCGGAGTCACCTAGTGCAG | 10600 fluorescence intensity (a.u.)
TCCTCTCCGATTTACTCCTCTCCTTTTTGCCCTATCGCCTCGGAGTCACCTAGTGCAG | 10300 fluorescence intensity (a.u.)
CAAAATCCTACATGTATATGCATCTCATTTTGTTCTTTTACGGAGTCACCTAGTGCAG | 9670 fluorescence intensity (a.u.)
CCCGCCCATCTGTCTCCATCTCTCCCCATCCTTTACTTTTCGGAGTCACCTAGTGCAG | 12300 fluorescence intensity (a.u.)
CTTTATTTTTTTTTCGGATCGAATTGCCACGTAAGCACCACGGAGTCACCTAGTGCAG | 8270 fluorescence intensity (a.u.)
TACATATACGCTCGTCTCGCCGTCGCAACCTCGTCACCTACGGAGTCACCTAGTGCAG | 8110 fluorescence intensity (a.u.)
GTTCGTGGTGGTACCGATTTCATTTTTTGCTATACATATGCGGAGTCACCTAGTGCAG | 8860 fluorescence intensity (a.u.)
CGCACCCAGGAGACTGGAGCCGTCGCGTTGCGTTGACTCCCGGAGTCACCTAGTGCAG | 10200 fluorescence intensity (a.u.)
CGTCTAATCTGGTTTCCATCTACAGCAGTTGTATTCATCACGGAGTCACCTAGTGCAG | 9540 fluorescence intensity (a.u.)
CTGGCGCATTTCGATTCGAGTTTGTCTCCTGCGCCTTCGACGGAGTCACCTAGTGCAG | 11400 fluorescence intensity (a.u.)
GAAATGTGGGAGGGGTTTTCTTACAAATGTTATATAGACACGGAGTCACCTAGTGCAG | 13900 fluorescence intensity (a.u.)
TCGTTCTTTAGTTTCTACCTTTGTGCTTGTGCGTTTGTAACGGAGTCACCTAGTGCAG | 9710 fluorescence intensity (a.u.)
GCAATTCCTGAATCTTTAACTATGCTGCTGCCTACTCTACCGGAGTCACCTAGTGCAG | 8370 fluorescence intensity (a.u.)
TAATTAGAGCTCATCACCACGCCTCTCGCCTCACATCATACGGAGTCACCTAGTGCAG | 9270 fluorescence intensity (a.u.)
GAATATTTTTCATAATCACCATCATCATTATTCTTCGCTACGGAGTCACCTAGTGCAG | 8040 fluorescence intensity (a.u.)
TCCCCAACCTCCGGCCAGCTCCAACCGCCGCCCACGCCGCCGGAGTCACCTAGTGCAG | 10300 fluorescence intensity (a.u.)

Shown field by field: entries from further up.
TCTCCTCTCTCTCTCTCTCTCATTTCTCTCTCGTTTTCTTCGGAGTCACCTAGTGCAG
  binding signal: 11400 fluorescence intensity (a.u.)
TGTGGCTGTGCGTGTCTGATTCGTGTTCGCTTCTCCGACTCGGAGTCACCTAGTGCAG
  binding signal: 9050 fluorescence intensity (a.u.)
CTTTATTTTTTTTTCGGATCGAATTGCCACGTAAGCACCACGGAGTCACCTAGTGCAG
  binding signal: 8270 fluorescence intensity (a.u.)
TACATATACGCTCGTCTCGCCGTCGCAACCTCGTCACCTACGGAGTCACCTAGTGCAG
  binding signal: 8110 fluorescence intensity (a.u.)

Next results.

Sequence | binding signal
AACTCTATCTAGTTTGCTCAGACCCCACTGCTATTTTTTTCGGAGTCACCTAGTGCAG | 10500 fluorescence intensity (a.u.)
GCCACAACCTCTAGTGCTCAACCAACAACCATCTCCTTTTCGGAGTCACCTAGTGCAG | 9320 fluorescence intensity (a.u.)
CATATCTCTGCAGTATGTGTTACACTGTCATCTTTTCATGCGGAGTCACCTAGTGCAG | 8350 fluorescence intensity (a.u.)
ACTTTCTTTTTCATAATTTCATTTAGTGCTGACTTTGTTGCGGAGTCACCTAGTGCAG | 8810 fluorescence intensity (a.u.)
TGCTTCATATTATAAGTCGTTTATTTTTTTCCTAATCAAACGGAGTCACCTAGTGCAG | 8830 fluorescence intensity (a.u.)
GGTTGAGGCTGTTTTCCGATCGTTCCGACCGTTTTCATCCCGGAGTCACCTAGTGCAG | 8700 fluorescence intensity (a.u.)
TTAAATATTTGAGGGGTCGATATTTCTGGTATTGGTATTACGGAGTCACCTAGTGCAG | 10500 fluorescence intensity (a.u.)
TTTTATTACCTATATTTCACTTTGGACCACCCTTAAACATCGGAGTCACCTAGTGCAG | 8410 fluorescence intensity (a.u.)
ATCTTTGTTCTTGTTTGCTTTCTTCATCTGACGAGTGTTTCGGAGTCACCTAGTGCAG | 8100 fluorescence intensity (a.u.)
GTTAGTTCATCTCCTCCTTGACCGCGTTTCCATCACTGATCGGAGTCACCTAGTGCAG | 10700 fluorescence intensity (a.u.)
CACTCCCGACCCTTTCCGCATCATCACGCTCACGCAGCCCCGGAGTCACCTAGTGCAG | 8190 fluorescence intensity (a.u.)
CGCTCTCGATCACCATCTTCTGCTTCATCCATCATCCACTCGGAGTCACCTAGTGCAG | 8130 fluorescence intensity (a.u.)
TTCGGAAGCCCATCATCTCATCCGGTTCGTTATTTTTATTCGGAGTCACCTAGTGCAG | 8220 fluorescence intensity (a.u.)
CTACCTCGGCGACCCGCCATCATGTCGATTGCTCTACGCGCGGAGTCACCTAGTGCAG | 8350 fluorescence intensity (a.u.)
TAGTTCTTTCATTCGTGTCTGAAAACCCTTTTCGAGTTTCCGGAGTCACCTAGTGCAG | 10500 fluorescence intensity (a.u.)
GGTTTCTTGTGTTGGGAGAGGATTGATGGGCTACCTTGGACGGAGTCACCTAGTGCAG | 8360 fluorescence intensity (a.u.)
AATCTGCAAAACCAGACATTCGACATCTTTATTGGTATTTCGGAGTCACCTAGTGCAG | 9090 fluorescence intensity (a.u.)
TAGCCGCTCAATTTTATCATGCTGTTTTTTGCGCACTTAACGGAGTCACCTAGTGCAG | 10800 fluorescence intensity (a.u.)
ATTCATATTTGAATGTATGTTTTTTCTGTCTGTTTTATGTCGGAGTCACCTAGTGCAG | 8500 fluorescence intensity (a.u.)
ACCAATACTCAATTATTTTTCTTCTTTGTATTTCAGTCTACGGAGTCACCTAGTGCAG | 9280 fluorescence intensity (a.u.)
TTCGTTCCGATTCTTTTTTTTTCATTTGCTATGCATCTTCCGGAGTCACCTAGTGCAG | 11000 fluorescence intensity (a.u.)

As entered above:
binding signal with TAGTTCTTTCATTCGTGTCTGAAAACCCTTTTCGAGTTTCCGGAGTCACCTAGTGCAG is entered as 10500 fluorescence intensity (a.u.)
binding signal with TTTTATTACCTATATTTCACTTTGGACCACCCTTAAACATCGGAGTCACCTAGTGCAG is entered as 8410 fluorescence intensity (a.u.)

— paper PMC7819943, “Rice protein-binding microarrays: a tool to detect cis-acting elements near promoter regions in rice”
